# PubChem BioAssay AID504834 (National Center for Advancing Translational Sciences (NCATS), 2011)
# Among all 320,000 compounds or so, about 22,000 (6.9%) were called active. The shares of active, inactive and inconclusive entries below differ from those in the screen. The call rests on the fitted dose curve; in most records, active means well fitted inhibition curve with a large enough effect; inconclusive means small, poorly fitted or top-dose-only effect, or another doubt; inactive means no such curve, though single readings can be large or run the other way. Potencies of inconclusive entries are doubtful fits and often do not repeat.
# Assay: Primary qHTS for delayed death inhibitors of the malarial parasite plastid, 96 hour incubation
# Details: P. falciparum luciferase reporter growth; series mostly up to 28.7 µM
# Summary of the method: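 Parasite growth measured via integrated firefly luciferase reporter in P. falciparum. Infected erythrocytes at 2% hematocrit, 0.05% parasitemia final were treated 96 hours at 37 C under 5% CO2, and luminescence was read.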
# Potency means the concentration at half of the fitted maximal effect.
row,Structure (SMILES),Potency
1,COc1ccc(NC(=O)Cn2ncc(Cl)c(Cl)c2=O)cc1S(=O)(=O)N1CCOCC1,"inconclusive: 13.1 µM [inhibitor, partial curve, poor fit]"
2,N/C(Cc1ccc(Cl)cc1Cl)=N\OC(=O)c1ccc(Br)o1,inactive
3,Nc1c(C(=O)Nc2ccc(S(=O)(=O)N3CCCC3)cc2)sc2nc3cc4c(cc3cc12)CCC4,inactive
4,COc1ccc2c3c([nH]c2c1)C1CC2C(CC(O)C(OC)C2C(=O)O)CN1CC3 (stereo not drawn),active: 3.7 µM
5,COc1ccc(C(NC(=O)c2ccc(-c3ccccc3)cc2)c2ccccc2)cc1 (stereo not drawn),"inconclusive: 4.15 µM [inhibitor, single point]"
6,CCCN(CCC)C(=O)CSc1nc2n[nH]c(C)c2c(=N)n1-c1ccc(OC)cc1,"inconclusive: 18.5 µM [inhibitor, single point]"
7,COc1cccc(C2SCC(=O)N2c2ccc(Cl)cc2)c1OC (stereo not drawn),inactive
8,O=C(Cn1cc2c(n1)CCCC2)NCc1cccc(Cl)c1,"inconclusive: 13.1 µM [inhibitor, single point]"
9,COc1ccccc1/C=C1\SC(=O)N(CCC(=O)N(C)C2CCS(=O)(=O)C2)C1=O (stereo not drawn),"inconclusive: 11.7 µM [inhibitor, single point]"
10,Fc1ccc(CNCc2ccc3c(c2)OCO3)cc1,inactive
11,CC(C)CC(NC(=O)OC(C)(C)C)c1cn([C@@H](Cc2ccc(O)cc2)C(=O)N2CCN(C(=O)OC(C)(C)C)CC2)nn1 (stereo partly drawn),active: 4.65 µM
12,CCCCC(CC)CNCc1cccn1CCN1CCOCC1 (stereo not drawn),active: 11.7 µM
13,COc1ccc(NC(=O)c2n[nH]c(=O)c3ccccc23)cc1S(=O)(=O)N1CCCCC1,"inconclusive: 3.7 µM [inhibitor, partial curve, poor fit]"
14,COc1ccc([N+](=O)[O-])cc1NC(=O)CC1SC(=Nc2cccc(C)c2C)N(/N=C/c2cccc(OC)c2OC)C1=O (stereo not drawn),"inconclusive: 1.65 µM [inhibitor, full curve]"
15,CCc1cc2c(SCC(=O)NC3CCS(=O)(=O)C3)ncnc2s1 (stereo not drawn),"inconclusive: 5.86 µM [inhibitor, partial curve, poor fit]"
16,CCCC(=O)NNC(=O)CC(=O)Nc1ccccc1C(=O)O,inactive
17,Cc1cc(C(=O)Nc2ccccc2N2CCOCC2)c(C)o1,"inconclusive: 0.0026 µM [inhibitor, full curve, poor fit]"
18,CCOC(=O)C(=O)N1c2ccccc2C(N(C(=O)C(=O)OCC)c2ccccc2)CC1C (stereo not drawn),"inconclusive: 18.5 µM [inhibitor, single point]"
19,Cc1ccc(CN2CCNC(=O)C2CC(=O)N(C)CCc2cnn(C)c2)cc1 (stereo not drawn),inactive
20,Cc1[nH]c2ccccc2c1SCCNC(=O)c1ccc(Br)o1,"inconclusive: 10.4 µM [inhibitor, single point]"
21,O=C(/C=C/c1ccccc1)Nc1cccnc1,"inconclusive: 18.5 µM [inhibitor, single point]"
22,CCOC(=O)c1c(NC(=O)COC(=O)/C=C/c2ccccc2)sc(C(=O)NC)c1C,inactive

row,Structure (SMILES),Potency
1,COc1ccc(C(=O)NNC(=O)C(=O)NC2CCCCC2)cc1,"inconclusive: 18.5 µM [inhibitor, single point]"
2,O=C(Cn1cc(S(=O)(=O)N2CCCC2)c(S(=O)(=O)N2CCCC2)c1)NCc1ccco1,"inconclusive: 10.4 µM [inhibitor, single point]"
3,CCN(CC(=O)NCc1ccc(Cl)cc1)C(=O)CCc1ccccc1,inactive
4,CC(Cc1ccccc1)NC(=O)NC(C)Cc1ccccc1 (stereo not drawn),inactive
5,Cc1cccc(NC(=S)N(CCN(C)C)Cc2cccs2)c1,"inconclusive: 11.7 µM [inhibitor, partial curve, poor fit]"
6,CC(C)(Oc1ccc(Cl)cc1)C(=O)NC1CCN(Cc2ccccc2)CC1,"inconclusive: 18.5 µM [inhibitor, single point]"
7,COc1ccc(CCNc2ncnc3c2nnn3Cc2ccccc2)cc1OC,"inconclusive: 5.22 µM [inhibitor, partial curve, poor fit]"
8,Cc1ccc2c(c1)N(CCCC(=O)NCc1cccnc1)C(=O)CO2,"inconclusive: 16.5 µM [inhibitor, partial curve, poor fit]"
9,C=CCOc1c(Br)cc(/C=C2\SC(=Nc3ccccc3)NC2=O)cc1OC,"inconclusive: 0.522 µM [inhibitor, full curve, poor fit]"
10,CSc1nsc(SCC(=O)Nc2ccc(C(=O)O)cc2)n1,"inconclusive: 1.31 µM [inhibitor, partial curve, poor fit]"
11,CCOc1ccc(Oc2nc(NCC(C)C)nc(OC)n2)nn1,"inconclusive: 9.28 µM [inhibitor, single point]"
12,Cc1csc(SCC(=O)N2CCCC2)n1,inactive
13,Cc1cccc(NC(=O)CSc2nncn2-c2ccccn2)c1,inactive
14,CCOC(=O)N1CCC(NC(=O)COc2cc(=O)n(C)c3ccccc23)CC1,"inconclusive: 13.1 µM [inhibitor, single point]"
15,COc1ccccc1N1C(=O)CC1(C#N)c1ccc(OCc2ccccc2)cc1 (stereo not drawn),"inconclusive: 10.4 µM [inhibitor, single point]"
16,Oc1ccc(-c2nnc(Nc3cccc(O)c3)c3ccccc23)cc1,"inconclusive: 10.4 µM [inhibitor, single point]"
17,NC(=O)CC(NC(=O)Cc1ccc(Br)cc1)c1ccc(NCCc2ccccc2F)c([N+](=O)[O-])c1 (stereo not drawn),"inconclusive: 18.5 µM [inhibitor, single point]"
18,C[C@@H](Oc1ccccc1)c1nnn(Cc2ccccc2)c1-c1c([C@@H](C)Oc2ccccc2)nnn1Cc1ccccc1,active: 6.57 µM
19,CCOC(=O)c1sc(N)c(C(=O)OCC)c1COC(=O)C1CC(=O)N(Cc2ccco2)C1 (stereo not drawn),"inconclusive: 18.5 µM [inhibitor, single point]"
20,COc1ccc([N+](=O)[O-])cc1NC(=O)C(C)N1CCN(C(=O)c2ccco2)CC1 (stereo not drawn),"inconclusive: 4.15 µM [inhibitor, single point]"
21,Oc1ccccc1-c1nc2ccccc2nc1-c1ccccc1,"inconclusive: 3.29 µM [inhibitor, partial curve]"
